Data set [1] has as its system professional panelists. The data set can be described thus: Organoleptic assessment of aqueous solution containing 10% by weight of the compound. The format is in vivo. The conditions noted are these: 10% by weight aqueous solution applied on upper arm, total score of 10 panelists, immediately after to 30 minutes after application, 35 or higher favorable; for Sticky feeling: five-grade sticky-free (smooth) feeling; for Moist feeling: five-grade system.

Data set [2] relates to professional panelists. The data set can be described thus: Organoleptic assessment of creams containing 4.0 wt % test compound. The class given is in vivo. The conditions noted are these: cream with 4.0 wt % test compound, total score of 10 panelists, 35 or higher favorable; for Sticky feeling: five-grade sticky-free feeling; for Moist feeling: five-grade system.

Sticky feeling and Moist feeling data for two compounds are collected here from patent US20050079188A1, “Base for external preparations for the skin and cosmetic containing the same” (priority 2001, published 2005).

Each structure is given as a SMILES string.

In the case of `CCCCCCOCCOCCOCCOCCOCCOCCOCCCCCC` [C6H13O(EO)6C6H13], the Sticky feeling in data set [1] came to 39; in data set [2] it was 38. The Moist feeling was 30 in data set [1] and 31 in data set [2].
The corresponding values for `CC(O)CO` (centres unmarked) [Propylene glycol] are 18, 32, 42 and 39.
